This note sets out measurements from paper PMC12196705.

Sequences of proteins named here, by UniProt entry; tags and fusion partners are left off.
UniProt Q00987: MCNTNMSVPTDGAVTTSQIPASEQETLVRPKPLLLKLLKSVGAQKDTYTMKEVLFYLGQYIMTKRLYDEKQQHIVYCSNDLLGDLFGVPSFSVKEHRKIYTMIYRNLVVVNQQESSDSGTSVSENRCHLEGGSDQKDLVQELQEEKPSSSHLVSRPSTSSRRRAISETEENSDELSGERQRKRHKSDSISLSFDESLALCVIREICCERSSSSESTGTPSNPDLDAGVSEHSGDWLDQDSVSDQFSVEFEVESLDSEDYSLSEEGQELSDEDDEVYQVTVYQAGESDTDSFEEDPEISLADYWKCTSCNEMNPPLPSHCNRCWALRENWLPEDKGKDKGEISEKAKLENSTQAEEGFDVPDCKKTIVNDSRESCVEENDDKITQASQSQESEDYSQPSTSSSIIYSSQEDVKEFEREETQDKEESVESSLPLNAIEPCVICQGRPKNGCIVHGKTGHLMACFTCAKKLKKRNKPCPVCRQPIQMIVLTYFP

These are yes or no findings as the source states them, for the method shown. Binding seen in cells or lysates may run through a third protein. Some results given as binding are weak or reduced against the parent protein; the word gives no strength.

The test addresses Mdm2 (human (endogenous in H1299)) (UniProt Q00987). Put plainly: co-IP; endogenous Mdm2 immunoprecipitated from H1299 whole-cell lysate (1 mg protein, NP-40 lysis buffer, cells treated with MG132 for 4 h) with a primary antibody mix against Mdm2 or IgG control, overnight at 4 °C, Protein G agarose beads; immunoblot for HMCS1_HUMAN.

B1: hydroxymethylglutaryl-CoA synthase (HMCS1_HUMAN) (protein, UniProt Q01581 1-520)
chain: MPGSLPLNAEACWPKDVGIVALEIYFPSQYVDQAELEKYDGVDAGKYTIGLGQAKMGFCTDREDINSLCMTVVQNLMERNNLSYDCIGRLEVGTETIIDKSKSVKTNLMQLFEESGNTDIEGIDTTNACYGGTAAVFNAVNWIESSSWDGRYALVVAGDIAVYATGNARPTGGVGAVALLIGPNAPLIFERGLRGTHMQHAYDFYKPDMLSEYPIVDGKLSIQCYLSALDRCYSVYCKKIHAQWQKEGNDKDFTLNDFGFMIFHSPYCKLVQKSLARMLLNDFLNDQNRDKNSIYSGLEAFGDVKLEDTYFDRDVEKAFMKASSELFSQKTKASLLVSNQNGNMYTSSVYGSLASVLAQYSPQQLAGKRIGVFSYGSGLAATLYSLKVTQDATPGSALDKITASLCDLKSRLDSRTGVAPDVFAENMKLREDTHHLVNYIPQGSIDSLFEGTWYLVRVDEKHRRTYARRPTPNDDTLDEGVGLVHSNIATEHIPSPAKKVPRLPATAAEPEAAVISNGEH
B1: the binding entry is listed as “binds”.
